{"source": "PubChem BioAssay AID504834", "about": "(National Center for Advancing Translational Sciences (NCATS), 2011)", "note": "Screen size: about 320,000 compounds; about 22,000 (6.9%) were called active. The shares of active, inactive and inconclusive entries below differ from those in the screen. Calls follow the shape of the dose curve; as a rule, active = well fitted inhibition curve with a large enough effect; inconclusive = small, poorly fitted or top-dose-only effect, or another doubt; inactive = no such curve, though single readings can be large or run the other way. A potency beside an inconclusive call is a rough fit, not a confirmed value. % is scaled to controls: 0 for no effect and ±100 for the full control effect; potency is read from the fitted curve at half-maximal effect."}
{"assay": "Primary qHTS for delayed death inhibitors of the malarial parasite plastid, 96 hour incubation", "conditions": "P. falciparum luciferase reporter growth; series mostly up to 28.7 µM; activity change, negative = inhibition: at the top concentration", "how_it_was_run": "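Delayed-death screen, second-generation endpoint: infected erythrocytes, 2% hematocrit, 0.05% parasitemia final; 96 hours at 37 C, 5% CO2; luciferase detection reagent; luminescence decrease equals reduced growth.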"}
{"smiles": "C=CCCCCCCCCC(=O)OC", "activity change, negative = inhibition": "inactive: -0.787%"}
{"smiles": "Cc1ccccc1-n1ncc2c1CC(C)(C)CC2NC(=O)c1cn[nH]c1C", "note": "(stereo not given)", "Potency": "inconclusive: 18.5 µM [inhibitor, single point]"}
{"smiles": "CCCCCCSc1cc(-c2nc3cc(C)ccn3c2NC2CCCCC2)ccc1OC", "Potency": "active: 8.28 µM"}
{"smiles": "CC(C)(C)OC(=O)NCCc1nnc(S(=O)(=O)Cc2ccc(Cl)cc2Cl)o1", "activity change, negative = inhibition": "inactive: 8.46%"}
{"smiles": "CC1CCN(CCC(=O)Nc2ccccc2)CC1", "activity change, negative = inhibition": "inactive: -26.8%"}
{"smiles": "O=C1Nc2c(Br)cc(Br)cc2C1(O)N1CCOCC1", "note": "(stereo not given)", "Potency": "inconclusive: 18.5 µM [inhibitor, single point]"}
{"smiles": "CN(C)S(=O)(=O)NCCNc1ccc(C(F)(F)F)cc1[N+](=O)[O-]", "Potency": "inconclusive: 4.15 µM [inhibitor, single point]"}
{"smiles": "CCCCOC(=O)COc1ccc(Cl)cc1Cl", "Potency": "inconclusive: 16.5 µM [inhibitor, single point]"}
{"smiles": "CN(C)CCCN(C(=O)CCS(=O)(=O)c1ccccc1)c1nc2cc3c(cc2s1)OCO3", "activity change, negative = inhibition": "inactive: 23.4%"}
{"smiles": "CCOc1nc(-c2ccccc2)ccc1-c1noc(COC)n1", "Potency": "inconclusive: 18.5 µM [inhibitor, single point]"}
{"smiles": "CCOC(=O)c1c(NC(=O)c2cc(-c3ccc(Cl)s3)nc3ccccc23)sc(C(N)=O)c1C", "activity change, negative = inhibition": "inactive: -3.73%"}
{"smiles": "CCC1Nc2ncnc(N3CCN(c4ccccc4)CC3)c2N(Cc2ccc(Br)cc2)C1=O", "note": "(stereo not given)", "Potency": "inconclusive: 2.62 µM [inhibitor, full curve]"}
{"smiles": "O=C(Cc1ccc(-n2cccc2)cc1)NC1CCCCCC1", "Potency": "active: 14.7 µM"}
{"smiles": "O=C(Nc1ccc(NC(=O)C2CC2)cc1)c1cccs1", "Potency": "active: 10.4 µM"}
{"smiles": "Oc1ccc(N2CCN(CC(O)c3ccccc3)CC2)cc1", "note": "(stereo not given)", "Potency": "inconclusive: 18.5 µM [inhibitor, single point]"}
{"smiles": "O=C(NC1=NCCS1)c1sc2cc(Cl)cc(Cl)c2c1Cl", "Potency": "inconclusive: 14.7 µM [inhibitor, partial curve, poor fit]"}
{"smiles": "Cc1ccc2c(NC(=O)C3CC3)c(C)ccc2n1", "Potency": "inconclusive: 1.31 µM [inhibitor, partial curve, poor fit]"}
{"smiles": "Cc1nc2cc(-c3ccccc3)nn2c(C)c1CCC(=O)N1CCN(c2ccccn2)CC1", "Potency": "inconclusive: 9.28 µM [inhibitor, single point]"}
{"smiles": "Cc1cccc(CC2SC(N)=NC2=O)c1", "note": "(stereo not given)", "activity change, negative = inhibition": "inactive: 0.215%"}
{"smiles": "CCN(CC)Cc1nc2c(c(=O)[nH]1)C1(CCCC1)Cc1ccccc1-2", "Potency": "active: 11.7 µM"}
{"smiles": "COc1ccc2nc(C)cc(N3CCN(S(=O)(=O)c4ccccc4F)CC3)c2c1", "Potency": "active: 9.28 µM"}
{"smiles": "CCN(CC)c1ccc(C(=O)OCC(=O)Nc2ccccc2-c2ccccc2)cc1", "Potency": "active: 10.4 µM"}
{"smiles": "O=c1[nH]c(N/N=C/c2ccccc2)nc2ccccc12", "activity change, negative = inhibition": "inactive: 1.55%"}
{"smiles": "O=C(Cc1cccs1)N1CCN(S(=O)(=O)c2ccc(Cl)c(C(F)(F)F)c2)CC1", "Potency": "inconclusive: 2.33 µM [inhibitor, partial curve, poor fit]"}
{"smiles": "N#Cc1c(NC(=O)c2ccccc2)sc2c1CCCCC2", "Potency": "inconclusive: 14.7 µM [inhibitor, single point]"}
{"smiles": "COC(=O)\\C(C(C)=O)=C(/C=C/C=C/C=C/N(C)C)N(C)C", "activity change, negative = inhibition": "inactive: 21.8%"}
{"smiles": "Brc1cccc(-c2nc3cccnc3nc2-c2cccc(Br)c2)c1", "Potency": "inconclusive: 1.31 µM [inhibitor, partial curve, poor fit]"}
{"smiles": "O=C(NCC(=O)N1CCN(c2ccccc2O)CC1)c1ccc2ccccc2c1", "Potency": "active: 6.57 µM"}
{"smiles": "CC(C)N1CCc2c(sc(NC(=O)c3cc(-c4cccs4)nc4ccccc34)c2C(N)=O)C1", "Potency": "inconclusive: 18.5 µM [inhibitor, single point]"}
{"smiles": "COC(=O)C1=C(C)N(c2ccccc2)C(=S)NC1c1ccccc1C(F)(F)F", "note": "(stereo not given)", "Potency": "inconclusive: 13.1 µM [inhibitor, partial curve, poor fit]"}
{"smiles": "Cc1ccc(C(=O)Nc2ccccc2NC(=O)c2ccc(C)o2)o1", "activity change, negative = inhibition": "inactive: 9.71%"}
{"smiles": "COc1ccc(NC(=O)C(=O)NCC(=O)Nc2cc(OC)ccc2OC)cc1", "Potency": "inconclusive: 10.4 µM [inhibitor, single point]"}
{"smiles": "CC1CC(NC2=NCCS2)CC(C)(C)C1", "note": "(stereo not given)", "Potency": "inconclusive: 13.1 µM [inhibitor, single point]"}
{"smiles": "CCOc1ccc(-c2[nH]ncc2Oc2cccc(OC)c2)c(O)c1", "Potency": "inconclusive: 11.7 µM [inhibitor, single point]"}
{"smiles": "COC(=O)c1cccnc1-n1c(=O)c2cccnc2n(Cc2ccc([N+](=O)[O-])cc2)c1=O", "Potency": "inconclusive: 13.1 µM [inhibitor, single point]"}
{"smiles": "COc1ccc(C2=NS(=O)(=O)N(C)C(C(=O)NCc3ccc4c(c3)OCO4)=C2)cc1", "Potency": "inconclusive: 18.5 µM [inhibitor, single point]"}
{"smiles": "O=C1C=C(c2cc(C(F)(F)F)cc(C(F)(F)F)c2)C[C@@H](c2ccc(Cl)cc2)C1", "Potency": "inconclusive: 11.7 µM [inhibitor, partial curve, poor fit]"}
{"smiles": "O=C(NNC1OC(CO)C(O)C(O)C1O)c1cccc(Br)c1", "note": "(stereo not given)", "activity change, negative = inhibition": "inactive: -41.9% [at 5.75 µM]"}
{"smiles": "O=C(Oc1c(CN2CCOCC2)cc(Cl)c2cccnc12)c1ccccc1F", "Potency": "active: 2.08 µM"}
{"smiles": "CC(C)(C)c1ccc(/C=N/N2C(=O)CSC2=S)cc1", "activity change, negative = inhibition": "inactive: -8.11%"}
{"smiles": "Cc1cc(C)c2sc(NNC(=O)c3ccc(S(=O)(=O)N4CCc5ccccc5C4)cc3)nc2c1", "Potency": "active: 11.7 µM"}
{"smiles": "Cc1c(C)n(C)c2ccc(C(=O)N3CCN(c4ccccc4)CC3)cc12", "Potency": "inconclusive: 10.4 µM [inhibitor, single point]"}
{"smiles": "C(=C\\c1nc(N2CCCCCC2)c2ccccc2n1)/c1ccccc1", "activity change, negative = inhibition": "inactive: 50%"}
{"smiles": "CCOC(=O)C1=C(C)Nc2ccccc2N=C1NC(=O)/C=C/c1ccc(OC)cc1OC", "Potency": "inconclusive: 11.7 µM [inhibitor, single point]"}
{"smiles": "Cc1ccc(C(=O)N2CCN(c3cccc(C)c3C)CC2)o1", "Potency": "inconclusive: 14.7 µM [inhibitor, single point]"}
{"smiles": "Cc1cc(C)cc(N(CC(=O)NC2CCCC2)C(=O)CCC(=O)Nc2nc(C)cs2)c1", "activity change, negative = inhibition": "inactive: 19.1%"}
{"smiles": "CC(Cc1ccccc1)[n+]1cc(/N=C(\\N)[O-])on1", "note": "(stereo not given)", "activity change, negative = inhibition": "inactive: 23.5%"}
{"smiles": "CC(C)c1ccc(OCC(O)CNC(C)c2ccccc2)cc1", "note": "(stereo not given)", "Potency": "inconclusive: 6.57 µM [inhibitor, partial curve, poor fit]"}
{"smiles": "CCCc1cc(C(=O)Nc2sc(C)c(C)c2C(=O)OCC)no1", "Potency": "inconclusive: 18.5 µM [inhibitor, single point]"}
{"smiles": "CCCn1c(=O)c2sccc2n2c(CCCC(=O)NCc3ccco3)nnc12", "Potency": "active: 14.7 µM"}
{"smiles": "Cc1cc(NCCNC2=CC(=O)CCC2)nc2ccccc12", "Potency": "inconclusive: 18.5 µM [inhibitor, single point]"}
{"smiles": "O=C(CC(=O)Nc1cccc(Cl)c1)N/N=C\\c1ccccc1", "Potency": "inconclusive: 2.08 µM [inhibitor, full curve]"}
{"smiles": "COc1ccc(NC(=O)C2CCCC2)cc1", "Potency": "inconclusive: 11.7 µM [inhibitor, single point]"}
{"smiles": "Cc1onc(-c2ccccc2Cl)c1C(=O)Nc1ccc(-c2cn3cccnc3n2)cc1", "Potency": "inconclusive: 9.28 µM [inhibitor, single point]"}
{"smiles": "CCOC(=O)N/N=C\\c1ccc(OC/C=C/c2ccccc2)cc1", "Potency": "inconclusive: 14.7 µM [inhibitor, partial curve, poor fit]"}
{"smiles": "COc1ccc(NC(=O)N2CCC(c3nc(-c4cccs4)no3)CC2)cc1", "Potency": "active: 0.522 µM"}
{"smiles": "O=C(Nc1cccc(S(=O)(=O)N2CCCCC2)c1)Nc1ccc(Cl)cc1Cl", "Potency": "inconclusive: 18.5 µM [inhibitor, single point]"}
{"smiles": "COc1ccc(C(=O)NNC(=O)Cc2ccc(Cl)cc2)cc1", "Potency": "inconclusive: 11.7 µM [inhibitor, partial curve, poor fit]"}
{"smiles": "Cc1cccc(OCC(=O)Nc2ccc3c(c2)nc(CCN2CCCCC2)n3C)c1", "Potency": "inconclusive: 11.7 µM [inhibitor, single point]"}
{"smiles": "O=C(Nc1ccc(S(=O)(=O)N2CCOCC2)cc1)C1CC(=O)N(c2ccc(F)cc2)C1", "note": "(stereo not given)", "Potency": "inconclusive: 18.5 µM [inhibitor, single point]"}
{"smiles": "COc1cccc(-c2nn(-c3ccc(F)cc3)cc2C(=O)NCC2CCCO2)c1", "note": "(stereo not given)", "activity change, negative = inhibition": "inactive: 1.59%"}
{"smiles": "COc1ccc(/C=N\\NC(=O)c2cc(O)c(O)c(O)c2)cc1CN1CCN(c2ccc(F)cc2)CC1", "Potency": "inconclusive: 9.28 µM [inhibitor, partial curve, poor fit]"}
{"smiles": "COC(=O)c1ccc(OCC(O)CN2C(=O)c3ccccc3S2(=O)=O)cc1", "note": "(stereo not given)", "Potency": "inconclusive: 18.5 µM [inhibitor, single point]"}
{"smiles": "CC(=O)c1ccccc1NC(=O)COC(=O)/C(=C/c1ccccc1)n1nnnc1C", "Potency": "active: 2.08 µM"}
{"smiles": "CS(=O)(=O)Nc1ccc2c(c1)OCC(=O)N2Cc1ccccc1", "Potency": "inconclusive: 18.5 µM [inhibitor, single point]"}
{"smiles": "Cc1noc(/C=C/N(C)C)c1S(=O)(=O)N1CCCC(C(=O)Nc2ccc3c(c2)OCO3)C1", "note": "(stereo not given)", "Potency": "inconclusive: 18.5 µM [inhibitor, single point]"}
{"smiles": "O=C(c1ccc(S(=O)(=O)c2ccccc2Cl)c([N+](=O)[O-])c1)N1CCN(Cc2ccccc2)CC1", "Potency": "inconclusive: 10.4 µM [inhibitor, single point]"}
{"smiles": "O=C(COc1ccccc1)Nc1cccc(S(=O)(=O)N2CCCC2)c1", "Potency": "inconclusive: 11.7 µM [inhibitor, single point]"}
{"smiles": "CCOC(OCC)c1cn(Cc2ccc3c(c2)C(=O)c2ccccc2C3=O)nn1", "Potency": "inconclusive: 18.5 µM [inhibitor, single point]"}
{"smiles": "C=CCN(C(=O)Cn1ncc2c1-c1cc(C)ccc1OC2)c1ccccc1", "Potency": "active: 9.28 µM"}
